Reference: patent publication US20210061908A1
No constants are given. Whether binding was seen depends on the method and setting. Some entries that bind do so weakly or less than the wild type.

Biological target: T1, IGSF11-hFc (UniProt Q5DX21)
T1 sequence (looked up): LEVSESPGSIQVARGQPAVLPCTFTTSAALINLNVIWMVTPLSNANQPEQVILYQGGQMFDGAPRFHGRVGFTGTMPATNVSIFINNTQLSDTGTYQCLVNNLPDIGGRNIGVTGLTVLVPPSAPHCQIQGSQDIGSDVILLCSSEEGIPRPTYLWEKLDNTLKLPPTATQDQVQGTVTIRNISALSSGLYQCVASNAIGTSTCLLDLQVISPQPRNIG
Assay: ELISA, coated IGSF11-hFc, IgG1 format; EC50 column; the cell uses '*' although the legend of this column uses '#'

binding: binds
B1: A-006 (human IgG1 format) (antibody, V domains shown)
VH: EVQLVESGGGLIQPGGSLRLSCAASGFTVSSNYMSWVRQAPGKGLEWVSVIYSGGSTYYADSVKGRFTISRDNSKNTLYLQMNSLRAEDTAVYYCARGNPYYYGDLQVNFDYWGQGTLVTVSS
VL: QAVVTQEPSLTVSPGGTVTLTCASSTGAVTSGYYPNWFQQKPGQAPRPLIYSTSNKHSWTPARFSGSLLGGKAALTLSGVQPDDEAEYYCLLYYGGDWVFGGGTKLTVL
